Measured values: paper PMC11563578 (eLife, 2024)

Amino acid sequences for entries named in this document (tags omitted). A change or cut given only in a name is not applied to a line headed by its entry.
UniProt P08518: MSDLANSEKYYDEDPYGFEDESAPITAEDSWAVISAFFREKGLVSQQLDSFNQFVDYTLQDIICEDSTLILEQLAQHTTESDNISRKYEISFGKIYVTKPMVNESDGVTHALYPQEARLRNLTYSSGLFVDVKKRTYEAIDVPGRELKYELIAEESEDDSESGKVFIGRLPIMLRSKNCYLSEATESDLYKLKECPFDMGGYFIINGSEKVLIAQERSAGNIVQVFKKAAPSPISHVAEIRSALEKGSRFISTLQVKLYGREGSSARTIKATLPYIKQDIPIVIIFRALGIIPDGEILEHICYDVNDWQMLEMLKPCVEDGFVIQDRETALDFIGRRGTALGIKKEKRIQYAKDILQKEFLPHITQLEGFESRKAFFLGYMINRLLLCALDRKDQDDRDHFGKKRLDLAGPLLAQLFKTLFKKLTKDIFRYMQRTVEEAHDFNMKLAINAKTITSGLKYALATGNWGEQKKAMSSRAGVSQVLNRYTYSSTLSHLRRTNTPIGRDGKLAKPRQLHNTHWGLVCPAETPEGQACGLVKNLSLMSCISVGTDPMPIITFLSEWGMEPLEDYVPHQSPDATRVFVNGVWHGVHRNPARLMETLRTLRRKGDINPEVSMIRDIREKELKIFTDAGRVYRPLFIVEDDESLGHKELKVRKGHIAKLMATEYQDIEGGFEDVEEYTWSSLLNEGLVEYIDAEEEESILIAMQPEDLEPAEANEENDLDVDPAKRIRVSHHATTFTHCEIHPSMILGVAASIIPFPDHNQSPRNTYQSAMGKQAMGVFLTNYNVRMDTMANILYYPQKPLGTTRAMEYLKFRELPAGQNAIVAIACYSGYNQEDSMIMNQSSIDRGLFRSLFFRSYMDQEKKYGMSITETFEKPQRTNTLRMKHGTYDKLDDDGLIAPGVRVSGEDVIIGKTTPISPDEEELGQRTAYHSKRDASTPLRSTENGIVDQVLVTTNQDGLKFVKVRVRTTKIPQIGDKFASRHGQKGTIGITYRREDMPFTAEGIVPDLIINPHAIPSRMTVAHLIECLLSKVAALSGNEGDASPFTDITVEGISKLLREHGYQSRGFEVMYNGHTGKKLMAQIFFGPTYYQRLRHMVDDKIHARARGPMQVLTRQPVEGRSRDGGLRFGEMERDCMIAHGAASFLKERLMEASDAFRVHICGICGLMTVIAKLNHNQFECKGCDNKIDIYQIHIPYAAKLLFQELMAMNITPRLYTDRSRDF
UniProt P20434: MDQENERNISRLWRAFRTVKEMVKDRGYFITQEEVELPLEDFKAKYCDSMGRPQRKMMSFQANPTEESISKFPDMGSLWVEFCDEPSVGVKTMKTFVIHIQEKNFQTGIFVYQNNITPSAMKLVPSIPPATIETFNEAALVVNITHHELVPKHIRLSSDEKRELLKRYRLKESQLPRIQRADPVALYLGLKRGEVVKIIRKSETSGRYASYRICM

Target: FLAG-tagged Rpb2 (C-terminal HFH tag on RPB2, Δrpb4 strain) (S. cerevisiae) (UniProt P08518)
Assay: affinity purification with mass spectrometry; yeast lysate (50 mM HEPES pH 7.9, 400 mM ammonium sulfate, 10 mM MgSO4, 1 mM EDTA, 20% glycerol) on anti-FLAG M2 agarose overnight at 4°C, eluted with 3X FLAG peptide; bait Rpb3-HFH (wild type) or Rpb2-HFH (Δrpb4 strain); subunits seen by Coomassie SDS-PAGE and by MS of Q2linker-modified peptides

binding: binds
Substance: RNA polymerase II subunit Rpb5 (from UniProt P20434 1-215)

These are yes or no findings as the source states them, for the method shown. In cells and extracts the contact can be indirect. Here binding means that the protein was enriched with, or labelled near, the bait; the list need not be complete.
